The values that follow come from patent US20260166115A1, “POLYUNSATURATED FATTY ACID-BOUND ALPHA FETOPROTEIN PROMOTES IMMUNE SUPPRESSION BY ALTERING HUMAN DENDRITIC CELL METABOLISM” (The Regents of the University of California, priority 2022, published 2026).

The data set can be described thus: Lipid analysis of protein-bound fatty acids by mass spectrometry and gas chromatography.

B1: nAFP: cord blood-derived normal alpha fetoprotein; commercially available (Cell Sciences) (protein, UniProt P02771 19-609, looked up)
Alpha-fetoprotein: RTLHRNEYGIASILDSYQCTAEISLADLATIFFAQFVQEATYKEVSKMVKDALTAIEKPTGDEQSSGCLENQLPAFLEELCHEKEILEKYGHSDCCSQSEEGRHNCFLAHKKPTPASIPLFQVPEPVTSCEAYEEDRETFMNKFIYEIARRHPFLYAPTILLWAARYDKIIPSCCKAENAVECFQTKAATVTKELRESSLLNQHACAVMKNFGTRTFQAITVTKLSQKFTKVNFTEIQKLVLDVAHVHEHCCRGDVLDCLQDGEKIMSYICSQQDTLSNKITECCKLTTLERGQCIIHAENDEKPEGLSPNLNRFLGDRDFNQFSSGEKNIFLASFVHEYSRRHPQLAVSVILRVAKGYQELLEKCFQTENPLECQDKGEEELQKYIQESQALAKRSCGLFQKLGEYYLQNAFLVAYTKKAPQLTSSELMAITRKMAATAATCCQLSEDKLLACGEGAADIIIGHLCIRHEMTPVNPGVGQCCTSSYANRRPCFSSLVVDETYVPPAFSDDKFIFHKDLCQAQGVALQTMKQEFLINLVKQKPQITEEQLEAVIADFSGLLEKCCQGQEQEVCFAEEGQKLISKTRAALGV
Consider B1, for which the “saturated fatty acids (SUFAs) bound, mean proportion” value (shortened to “saturated fatty acids (SUFAs) bound”) is 82%.

B2: OVA: Ovalbumin, negative control protein (protein, UniProt P01012 2-386, looked up)
Ovalbumin: GSIGAASMEFCFDVFKELKVHHANENIFYCPIAIMSALAMVYLGAKDSTRTQINKVVRFDKLPGFGDSIEAQCGTSVNVHSSLRDILNQITKPNDVYSFSLASRLYAEERYPILPEYLQCVKELYRGGLEPINFQTAADQARELINSWVESQTNGIIRNVLQPSSVDSQTAMVLVNAIVFKGLWEKAFKDEDTQAMPFRVTEQESKPVQMMYQIGLFRVASMASEKMKILELPFASGTMSMLVLLPDEVSGLEQLESIINFEKLTEWTSSNVMEERKIKVYLPRMKMEEKYNLTSVLMAMGITDVFSSSANLSGISSAESLKISQAVHAAHAEINEAGREVVGSAEAGVDAASVSEEFRADHPFLFCIKHIATNAVLFFGRCVSP
As to B2, the “saturated fatty acids (SUFAs) bound” value is listed as 99%.

B3: tAFP: tumor-derived alpha fetoprotein, SEQ ID NO: 1; commercially available (Bio-Rad) (protein, listed as Homo sapiens)
chain: MKWVESIFLIFLLNFTESRTLHRNEYGIASILDSYQCTAEISLADLATIFFAQFVQEATYKEVSKMVKDALTAIEKPTGDEQSSGCLENQLPAFLEELCHEKEILEKYGHSDCCSQSEEGRHNCFLAHKKPTPASIPLFQVPEPVTSCEAYEEDRETFMNKFIYEIARRHPFLYAPTILLWAARYDKIIPSCCKAENAVECFQTKAATVTKELRESSLLNQHACAVMKNFGTRTFQAITVTKLSQKFTKVNFTEIQKLVLDVAHVHEHCCRGDVLDCLQDGEKIMSYICSQQDTLSNKITECCKLTTLERGQCIIHAENDEKPEGLSPNLNRFLGDRDFNQFSSGEKNIFLASFVHEYSRRHPQLAVSVILRVAKGYQELLEKCFQTENPLECQDKGEEELQKYIQESQALAKRSCGLFQKLGEYYLQNAFLVAYTKKAPQLTSSELMAITRKMAATAATCCQLSEDKLLACGEGAADIIIGHLCIRHEMTPVNPGVGQCCTSSYANRRPCFSSLVVDETYVPPAFSDDKFIFHKDLCQAQGVALQTMKQEFLINLVKQKPQITEEQLEAVIADFSGLLEKCCQGQEQEVCFAEEGQKLISKTRAALGV
Take B3: the “saturated fatty acids (SUFAs) bound” value worked out at 77%. The “monounsaturated fatty acids (MUFAs) bound, compared to OVA” value (P=0.0042) was determined as 2 fold. For the same molecule, the “monounsaturated fatty acids (MUFAs) bound, compared to nAFP” value (P=0.0318) came to 4 fold.
